Experimental data published in the supplement of paper PMC10849652.
The other results are listed elsewhere or left out.

Protein sequences, listed by entry. Tags and fused reporters are not part of them. Lines headed by an entry give the natural chain unless they say otherwise; changes in a name come on top.
UniProt O96006: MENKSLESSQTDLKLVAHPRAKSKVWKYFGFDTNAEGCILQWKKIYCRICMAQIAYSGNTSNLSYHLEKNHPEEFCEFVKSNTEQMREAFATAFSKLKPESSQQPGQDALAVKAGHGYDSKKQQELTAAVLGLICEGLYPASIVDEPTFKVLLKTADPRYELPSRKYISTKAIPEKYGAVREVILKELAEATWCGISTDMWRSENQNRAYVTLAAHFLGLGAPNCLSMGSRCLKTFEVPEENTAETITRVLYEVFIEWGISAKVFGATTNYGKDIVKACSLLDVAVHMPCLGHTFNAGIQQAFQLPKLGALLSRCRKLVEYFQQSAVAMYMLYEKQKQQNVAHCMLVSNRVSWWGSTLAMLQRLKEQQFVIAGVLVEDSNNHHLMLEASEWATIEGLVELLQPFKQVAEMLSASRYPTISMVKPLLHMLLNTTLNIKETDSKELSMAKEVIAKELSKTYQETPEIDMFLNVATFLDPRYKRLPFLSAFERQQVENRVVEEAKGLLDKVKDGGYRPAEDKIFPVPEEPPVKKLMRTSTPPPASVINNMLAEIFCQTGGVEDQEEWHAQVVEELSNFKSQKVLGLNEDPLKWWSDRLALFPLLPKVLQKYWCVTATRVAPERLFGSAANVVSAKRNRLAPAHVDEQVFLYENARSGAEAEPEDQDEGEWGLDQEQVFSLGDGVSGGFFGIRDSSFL
UniProt Q16600: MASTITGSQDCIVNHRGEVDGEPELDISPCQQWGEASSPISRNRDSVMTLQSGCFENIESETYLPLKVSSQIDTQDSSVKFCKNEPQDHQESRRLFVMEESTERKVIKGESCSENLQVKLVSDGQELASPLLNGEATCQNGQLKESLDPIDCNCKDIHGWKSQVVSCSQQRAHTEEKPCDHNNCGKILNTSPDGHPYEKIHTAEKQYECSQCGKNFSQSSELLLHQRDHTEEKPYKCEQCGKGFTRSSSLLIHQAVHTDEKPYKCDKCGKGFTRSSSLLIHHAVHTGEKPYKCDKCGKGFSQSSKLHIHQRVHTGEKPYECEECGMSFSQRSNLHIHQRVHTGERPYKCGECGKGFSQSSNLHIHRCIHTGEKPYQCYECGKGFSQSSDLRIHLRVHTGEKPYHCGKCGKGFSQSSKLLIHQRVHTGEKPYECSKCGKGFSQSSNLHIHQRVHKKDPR
UniProt Q8IUH4: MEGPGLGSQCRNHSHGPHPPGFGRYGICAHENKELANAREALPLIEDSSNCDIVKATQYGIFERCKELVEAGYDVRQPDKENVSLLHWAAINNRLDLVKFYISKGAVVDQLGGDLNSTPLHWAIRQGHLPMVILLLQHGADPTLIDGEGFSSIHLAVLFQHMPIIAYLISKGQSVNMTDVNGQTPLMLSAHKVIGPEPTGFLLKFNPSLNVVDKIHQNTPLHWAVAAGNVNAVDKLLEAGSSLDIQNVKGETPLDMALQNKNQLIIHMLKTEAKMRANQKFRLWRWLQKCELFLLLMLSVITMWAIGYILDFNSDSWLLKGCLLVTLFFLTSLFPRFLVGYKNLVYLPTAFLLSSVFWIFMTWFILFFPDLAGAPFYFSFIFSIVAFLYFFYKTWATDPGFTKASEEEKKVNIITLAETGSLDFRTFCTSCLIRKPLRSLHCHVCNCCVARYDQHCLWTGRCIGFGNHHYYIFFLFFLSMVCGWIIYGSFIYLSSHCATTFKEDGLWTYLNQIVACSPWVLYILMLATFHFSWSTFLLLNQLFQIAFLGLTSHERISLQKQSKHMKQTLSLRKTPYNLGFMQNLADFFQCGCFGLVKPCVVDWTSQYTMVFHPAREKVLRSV
UniProt Q86VM9: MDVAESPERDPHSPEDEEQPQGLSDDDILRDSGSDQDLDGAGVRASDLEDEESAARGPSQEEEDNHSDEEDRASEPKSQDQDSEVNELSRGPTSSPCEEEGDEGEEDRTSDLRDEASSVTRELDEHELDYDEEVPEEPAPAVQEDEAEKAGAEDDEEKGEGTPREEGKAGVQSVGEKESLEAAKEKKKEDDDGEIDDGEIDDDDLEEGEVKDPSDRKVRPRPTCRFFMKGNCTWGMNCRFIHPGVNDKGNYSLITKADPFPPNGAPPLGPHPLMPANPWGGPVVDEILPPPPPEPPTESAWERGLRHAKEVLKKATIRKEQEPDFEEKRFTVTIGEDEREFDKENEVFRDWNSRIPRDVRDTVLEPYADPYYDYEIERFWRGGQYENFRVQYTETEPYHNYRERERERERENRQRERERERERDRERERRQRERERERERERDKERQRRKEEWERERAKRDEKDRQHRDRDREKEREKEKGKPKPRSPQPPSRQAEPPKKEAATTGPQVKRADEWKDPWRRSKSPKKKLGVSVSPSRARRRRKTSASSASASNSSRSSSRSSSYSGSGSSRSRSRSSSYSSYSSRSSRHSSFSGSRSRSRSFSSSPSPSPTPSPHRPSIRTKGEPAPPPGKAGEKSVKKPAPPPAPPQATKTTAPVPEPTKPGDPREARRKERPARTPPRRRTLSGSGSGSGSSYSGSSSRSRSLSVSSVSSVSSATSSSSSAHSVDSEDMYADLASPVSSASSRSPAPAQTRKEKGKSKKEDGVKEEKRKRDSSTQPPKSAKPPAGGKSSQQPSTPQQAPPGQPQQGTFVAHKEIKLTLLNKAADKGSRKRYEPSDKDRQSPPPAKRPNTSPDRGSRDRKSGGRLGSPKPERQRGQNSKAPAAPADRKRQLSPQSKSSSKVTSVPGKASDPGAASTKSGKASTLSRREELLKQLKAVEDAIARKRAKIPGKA
UniProt Q96DA0: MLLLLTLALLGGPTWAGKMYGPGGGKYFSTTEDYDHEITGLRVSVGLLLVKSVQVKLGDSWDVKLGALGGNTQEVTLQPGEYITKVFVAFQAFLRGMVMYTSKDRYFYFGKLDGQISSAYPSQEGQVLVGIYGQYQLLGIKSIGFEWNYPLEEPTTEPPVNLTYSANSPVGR
UniProt O76080: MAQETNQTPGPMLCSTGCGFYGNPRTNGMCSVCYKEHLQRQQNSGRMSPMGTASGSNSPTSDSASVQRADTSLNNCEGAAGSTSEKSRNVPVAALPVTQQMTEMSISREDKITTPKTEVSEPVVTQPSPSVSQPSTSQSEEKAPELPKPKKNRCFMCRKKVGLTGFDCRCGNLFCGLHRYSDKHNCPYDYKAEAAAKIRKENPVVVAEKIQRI
UniProt Q9UQR1: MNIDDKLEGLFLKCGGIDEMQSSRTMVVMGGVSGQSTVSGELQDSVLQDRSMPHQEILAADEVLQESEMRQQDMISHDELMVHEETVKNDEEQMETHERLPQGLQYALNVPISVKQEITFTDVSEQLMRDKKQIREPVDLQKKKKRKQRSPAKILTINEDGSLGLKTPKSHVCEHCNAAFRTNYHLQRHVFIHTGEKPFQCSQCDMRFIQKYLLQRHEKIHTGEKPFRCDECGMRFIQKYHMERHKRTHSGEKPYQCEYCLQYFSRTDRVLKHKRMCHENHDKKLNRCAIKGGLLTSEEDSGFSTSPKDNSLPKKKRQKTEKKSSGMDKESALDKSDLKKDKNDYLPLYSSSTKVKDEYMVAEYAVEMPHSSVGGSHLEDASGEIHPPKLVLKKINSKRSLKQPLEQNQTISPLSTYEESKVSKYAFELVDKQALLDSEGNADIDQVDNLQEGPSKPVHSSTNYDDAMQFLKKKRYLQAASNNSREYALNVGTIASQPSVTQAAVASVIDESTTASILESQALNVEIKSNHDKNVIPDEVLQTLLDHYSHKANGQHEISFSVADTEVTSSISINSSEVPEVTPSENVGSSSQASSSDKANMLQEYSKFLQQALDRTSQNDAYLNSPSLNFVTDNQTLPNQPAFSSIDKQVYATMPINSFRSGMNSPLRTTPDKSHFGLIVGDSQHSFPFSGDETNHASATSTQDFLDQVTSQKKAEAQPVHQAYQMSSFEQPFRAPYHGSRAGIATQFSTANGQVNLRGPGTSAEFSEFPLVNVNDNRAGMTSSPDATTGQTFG
UniProt P51811: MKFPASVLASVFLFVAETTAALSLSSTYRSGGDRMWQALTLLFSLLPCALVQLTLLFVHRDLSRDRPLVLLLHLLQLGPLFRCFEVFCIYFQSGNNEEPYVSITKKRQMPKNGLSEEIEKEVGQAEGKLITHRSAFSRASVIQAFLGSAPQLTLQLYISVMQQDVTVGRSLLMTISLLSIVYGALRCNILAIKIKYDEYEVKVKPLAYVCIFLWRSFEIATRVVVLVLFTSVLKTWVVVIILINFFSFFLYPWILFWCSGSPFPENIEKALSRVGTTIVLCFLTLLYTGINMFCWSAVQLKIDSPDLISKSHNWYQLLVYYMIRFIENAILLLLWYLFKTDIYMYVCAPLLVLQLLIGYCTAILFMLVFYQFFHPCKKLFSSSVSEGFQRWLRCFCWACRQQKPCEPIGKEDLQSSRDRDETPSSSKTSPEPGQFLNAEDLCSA
UniProt Q9H8U3: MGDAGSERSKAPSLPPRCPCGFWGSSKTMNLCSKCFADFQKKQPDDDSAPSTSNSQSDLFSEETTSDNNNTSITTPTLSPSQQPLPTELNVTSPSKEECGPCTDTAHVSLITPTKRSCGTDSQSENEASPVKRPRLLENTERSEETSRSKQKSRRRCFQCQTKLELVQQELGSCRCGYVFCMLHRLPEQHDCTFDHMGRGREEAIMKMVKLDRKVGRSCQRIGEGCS
UniProt Q8N567: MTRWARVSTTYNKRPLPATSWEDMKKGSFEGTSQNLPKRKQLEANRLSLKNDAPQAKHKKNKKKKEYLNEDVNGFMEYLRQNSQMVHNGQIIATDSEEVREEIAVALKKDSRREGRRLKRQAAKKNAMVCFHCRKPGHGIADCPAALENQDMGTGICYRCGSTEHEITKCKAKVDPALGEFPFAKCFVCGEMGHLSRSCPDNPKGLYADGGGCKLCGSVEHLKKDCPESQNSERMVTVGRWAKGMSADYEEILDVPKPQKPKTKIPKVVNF
UniProt Q9UGR2: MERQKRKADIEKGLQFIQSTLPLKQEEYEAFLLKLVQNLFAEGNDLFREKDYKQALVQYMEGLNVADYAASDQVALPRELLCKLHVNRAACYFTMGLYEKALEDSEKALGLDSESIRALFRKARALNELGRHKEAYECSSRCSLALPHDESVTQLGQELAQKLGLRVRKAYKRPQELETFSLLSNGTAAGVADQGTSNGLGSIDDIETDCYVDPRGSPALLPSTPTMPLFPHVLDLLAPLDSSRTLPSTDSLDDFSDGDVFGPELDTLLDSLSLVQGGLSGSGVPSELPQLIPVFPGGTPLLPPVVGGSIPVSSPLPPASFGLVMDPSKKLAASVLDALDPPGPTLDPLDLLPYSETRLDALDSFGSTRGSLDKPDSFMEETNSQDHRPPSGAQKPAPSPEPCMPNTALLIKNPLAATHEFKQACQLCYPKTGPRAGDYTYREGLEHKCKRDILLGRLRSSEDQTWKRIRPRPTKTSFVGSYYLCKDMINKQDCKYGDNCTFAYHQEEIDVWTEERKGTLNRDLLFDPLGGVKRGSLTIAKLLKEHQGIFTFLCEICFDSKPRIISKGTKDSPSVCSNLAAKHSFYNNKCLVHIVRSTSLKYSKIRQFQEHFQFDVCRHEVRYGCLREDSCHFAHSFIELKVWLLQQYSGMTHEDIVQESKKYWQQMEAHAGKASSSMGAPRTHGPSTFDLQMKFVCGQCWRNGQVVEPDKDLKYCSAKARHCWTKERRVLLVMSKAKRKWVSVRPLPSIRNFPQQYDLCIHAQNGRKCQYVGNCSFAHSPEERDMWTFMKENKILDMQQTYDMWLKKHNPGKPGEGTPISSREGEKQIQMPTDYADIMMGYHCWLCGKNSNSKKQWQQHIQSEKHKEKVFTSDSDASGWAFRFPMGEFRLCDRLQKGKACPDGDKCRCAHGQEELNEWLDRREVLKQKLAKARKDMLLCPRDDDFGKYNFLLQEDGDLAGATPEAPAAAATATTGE
UniProt P52739: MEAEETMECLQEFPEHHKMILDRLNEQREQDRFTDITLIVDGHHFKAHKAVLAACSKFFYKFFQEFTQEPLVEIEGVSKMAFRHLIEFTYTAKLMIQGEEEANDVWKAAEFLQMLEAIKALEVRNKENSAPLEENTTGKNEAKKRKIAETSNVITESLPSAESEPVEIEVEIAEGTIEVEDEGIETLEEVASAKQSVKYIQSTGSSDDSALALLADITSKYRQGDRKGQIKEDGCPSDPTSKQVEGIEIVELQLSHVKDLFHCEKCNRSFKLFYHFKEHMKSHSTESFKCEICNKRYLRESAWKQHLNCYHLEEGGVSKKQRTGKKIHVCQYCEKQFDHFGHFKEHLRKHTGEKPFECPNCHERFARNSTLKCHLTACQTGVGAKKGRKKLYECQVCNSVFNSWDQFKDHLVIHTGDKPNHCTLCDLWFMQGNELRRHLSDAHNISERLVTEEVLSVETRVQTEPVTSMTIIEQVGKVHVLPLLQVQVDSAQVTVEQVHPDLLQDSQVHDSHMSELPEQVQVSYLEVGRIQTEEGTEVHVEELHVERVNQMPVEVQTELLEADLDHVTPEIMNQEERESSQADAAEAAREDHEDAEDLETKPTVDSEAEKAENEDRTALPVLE

Assays:
Assay in all cases: log2 fold change, soluble protein after heating vs DMSO (PISA); higher = thermal stabilisation; K562 cells, 10 uM, 30 min; active = over 0.2 and 3.5 SD of the protein, either way, in both replicates (recomputed)
[1] = compound: CC1=C(C=C(C=C1)NC(=O)C2=CC(=CC=C2)C(C)(C)C#N)NC3=CC4=C(C=C3)N=CN(C4=O)C
In short: (§1)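 Soluble protein was quantified by TMTpro 16plex LC-MS/MS after channel sums were equalised. It was obtained as the supernatant after 21,000xg for 90 min from pooled aliquots of K562 cells (2×10^6 cells/mL, 10 μM compound, 30 min) heated for 3 min across 48°C-58°C and extracted in PBS with 0.5% NP-40 at 4°C. Thermal stability values are relative to control samples and come from duplicates. They are given as log2 fold changes.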

[2] = compound: CC1=CC=C(C=C1)SC2=C3C=C(SC3=CN=C2)C(=O)N
In short: as §1

Nexturastat A = compound: CCCCN(Cc1ccc(C(=O)NO)cc1)C(=O)Nc1ccccc1 [Nexturastat A]
In short: as §1

[3] = compound: CCCS(=O)(=O)Nc1ccc(F)c(C(=O)c2c[nH]c3ncc(Cl)cc23)c1F
In short: as §1

[4] = compound: CCCc1cc(C)[nH]c(=O)c1CNC(=O)c1cc(-c2ccnc(N3CCN(C)CC3)c2)cc2c1cnn2C(C)C
In short: as §1

givinostat = compound: CCN(CC)Cc1ccc2cc(COC(=O)Nc3ccc(C(=O)NO)cc3)ccc2c1 [givinostat]
In short: as §1

barasertib = compound: CCN(CCCOc1ccc2c(Nc3cc(CC(=O)Nc4cccc(F)c4)[nH]n3)ncnc2c1)CCOP(=O)(O)O [barasertib]
In short: as §1

[5] = compound: CC[C@@H]1C(=O)N(C)c2cnc(Nc3ccc(C(=O)NC4CCN(C)CC4)cc3OC)nc2N1C1CCCC1
In short: as §1

volasertib = compound: CC[C@@H]1C(=O)N(C)c2cnc(Nc3ccc(C(=O)N[C@H]4CC[C@H](N5CCN(CC6CC6)CC5)CC4)cc3OC)nc2N1C(C)C [volasertib]
In short: as §1

[6] = compound: CC[C@H](C)N1C=C(C2=C(C=C(C=C21)C3=CN=C(C=C3)N4CCNCC4)C(=O)NCC5=C(C=C(NC5=O)C)C)C
In short: as §1

epoxomicin = compound: CC[C@H](C)[C@@H](C(=O)N[C@@H]([C@@H](C)O)C(=O)N[C@@H](CC(C)C)C(=O)[C@]1(CO1)C)NC(=O)[C@H]([C@@H](C)CC)N(C)C(=O)C [epoxomicin]
In short: as §1

[7] = compound: CCn1c(C(=O)N(C2CC2)C2CC2)cc2c3c(ncn3C)c(Nc3cc(C)n(C)n3)nc21
In short: as §1

[8] = compound: CCn1cc(-c2ccnc3[nH]c(-c4cccc(CN(C)C)c4)cc23)c(-c2ccc(NC(=O)N(C)C)cc2)n1
In short: as §1

rosiglitazone = compound: CN(CCOC1=CC=C(C=C1)C[C@H]2C(=O)NC(=O)S2)C3=CC=CC=N3 (racemic) [rosiglitazone]
In short: as §1

[9] = compound: CN1CCC(CNc2ccc3ncc(-c4cccc(OC(F)(F)F)c4)n3n2)CC1
In short: as §1

[10] = compound: CC1=C(C=C(C=C1)NC(=O)C2=CC(=CC=C2)N(C)C)NC(=O)C3=CC=C(C=C3)O
In short: as §1

vemurafenib = compound: CCCS(=O)(=O)Nc1ccc(F)c(C(=O)c2c[nH]c3ncc(-c4ccc(Cl)cc4)cc23)c1F [vemurafenib]
In short: as §1

[11] = compound: CN(C)CC(=O)Nc1ccc2[nH]c(=O)c3ccccc3c2c1
In short: as §1

[12] = compound: CN1C2=C(C3=C1C(=O)N(N=C3)CC4=CC(=CC=C4)N)SC(=C2)S(=O)C
In short: as §1

[13] = compound: CC1=NC(=CC=C1)C2=C(N=C(N2)C(C)(C)C)C3=CC4=NC=CN=C4C=C3
In short: as §1

Measured: log2 fold change

ZBTB10 (UniProt Q96DT7)
inactive: [1] -0.333 | [2] 0.022 | Nexturastat A 0.015 | [3] 0.029 | [4] -0.052 | givinostat -0.016 | barasertib 0.141 | [5] -0.025 | volasertib -0.109 | [6] 0.017 | epoxomicin -0.033 | [7] 0.007 | [8] -0.023 | rosiglitazone 0.008 | [9] -0.105

ZNF207 isoform 2 (UniProt O43670)
inactive: [1] -0.029 | [10] -0.129 | [2] 0.033 | Nexturastat A -0.15 | vemurafenib 0.158 | [3] 0.028 | [4] -0.398 | givinostat 0.083 | barasertib -0.114 | [5] 0.135 | volasertib -0.049 | [6] -0.006 | epoxomicin 0.044 | [7] 0.126 | [8] 0.022 | [11] 0.069 | rosiglitazone 0.054 | [12] -0.035 | [9] -0.173

ZBED1 (UniProt O96006)
inactive: [1] 0.038 | [2] 0.039 | Nexturastat A 0.062 | [3] -0.077 | barasertib 0.157 | volasertib -0.076 | [6] 0.23 | epoxomicin 0.061 | rosiglitazone 0.073 | [12] -0.05

ZEB2 (UniProt O60315)
inactive: [1] -0.027 | [10] 0.071 | [2] -0.012 | [13] 0.031 | Nexturastat A 0.047 | vemurafenib 0.256 | [3] 0.123 | [4] -0.067 | givinostat 0.193 | barasertib 0.117 | volasertib 0.001 | [6] 0.173 | epoxomicin -0.026 | [11] -0.124 | [12] 0.098

ZNF239 (UniProt Q16600)
active: [4] -0.662
inactive: [1] -0.002 | [10] 0.143 | [2] 0.019 | [13] 0.013 | Nexturastat A 0.441 | vemurafenib 0.004 | [3] -0.02 | givinostat -0.226 | barasertib -0.034 | volasertib 0.084 | [6] -0.096 | epoxomicin -0.051 | [8] 0.095 | [11] -0.1 | [12] 0.34 | [9] -0.063

ZDHHC13 (UniProt Q8IUH4)
inactive: [1] 0.04 | [10] -0.058 | Nexturastat A 0.072 | givinostat 0.018 | [5] -0.332 | epoxomicin 0.035 | [7] 0.287

ZADH2 (UniProt Q8N4Q0)
inactive: [10] -0.047 | [2] -0.015 | [13] -0.004 | Nexturastat A 0.005 | vemurafenib 0 | [3] -0.012 | [4] 0.004 | givinostat -0.066 | barasertib 0.049 | [5] 0.153 | epoxomicin 0.077 | [8] 0.13 | [11] 0.02 | [12] -0.013 | [9] 0.023
active: [1] 0.453 | volasertib 0.754 | [6] 0.526

ZC3H18 (UniProt Q86VM9)
inactive: [1] 0 | [10] -0.02 | [2] -0.064 | [13] -0.029 | Nexturastat A 0.11 | vemurafenib -0.025 | [3] -0.019 | [4] -0.011 | givinostat 0.106 | barasertib -0.05 | [5] -0.008 | volasertib -0.085 | [6] 0.032 | epoxomicin -0.059 | [8] 0.068 | [11] -0.039 | [12] 0.135 | [9] -0.044

ZG16B (UniProt Q96DA0)
inactive: [1] 0.057 | [2] 0.054 | vemurafenib 0.201 | [3] -0.038 | [4] -0.1 | barasertib 0.706 | [5] -0.218 | volasertib -0.471 | [11] 0.162 | rosiglitazone -0.096

ZFAND5 (UniProt O76080)
inactive: [1] -0.064 | [10] 0.034 | [2] -0.047 | [13] 0.007 | vemurafenib -0.106 | [3] -0.058 | [4] -0.038 | givinostat -0.016 | barasertib -0.013 | [5] 0.052 | volasertib 0.215 | [6] -0.045 | [8] -0.017 | [11] -0.119 | [12] 0.022 | [9] -0.068
active: Nexturastat A 0.371 | epoxomicin 0.345

XRCC1 (UniProt P18887)
inactive: [1] 0.049 | [10] 0.063 | [13] -0.222 | Nexturastat A 0.429 | givinostat 0.01 | epoxomicin -0.1 | [8] 0.006 | [12] -0.192 | [9] -0.239

ZNF148 (UniProt Q9UQR1)
inactive: [1] 0.022 | [10] -0.276 | [2] -0.092 | [13] -0.078 | Nexturastat A -0.082 | [3] 0.047 | [4] -0.005 | givinostat -0.02 | barasertib -0.191 | volasertib 0.001 | [6] 0.174 | epoxomicin 0.036 | [7] -0.214 | [8] 0.088 | rosiglitazone 0.133 | [12] 0.043 | [9] 0.066

XK (UniProt P51811)
inactive: [1] -0.114 | [2] -0.056 | [13] -0.018 | vemurafenib -0.207 | [3] -0.116 | [4] -0.1 | givinostat 0.011 | barasertib -0.046 | [5] 0.062 | volasertib 0.014 | [6] -0.133 | [7] -0.092 | [8] -0.138 | [11] -0.036 | rosiglitazone -0.05 | [12] -0.031 | [9] 0.028

ZBTB24 (UniProt O43167)
inactive: [1] 0.146 | [10] 0.096 | [2] -0.182 | Nexturastat A 0.116 | [3] 0.041 | givinostat -0.001 | [5] 0.047 | volasertib 0.336 | epoxomicin -0.112 | [7] -0.048 | [8] 0.071 | [12] 0.214 | [9] 0.239

ZFAND1 (UniProt Q8TCF1)
inactive: [1] 0.051 | [10] 0 | [2] 0.275 | [13] -0.018 | vemurafenib 0.275 | [3] 0.236 | [4] 0.157 | givinostat -0.108 | barasertib 0.02 | [5] -0.065 | volasertib -0.248 | [6] 0.01 | [7] 0.028 | [11] 0.045 | rosiglitazone 0.019

ZFAND3 (UniProt Q9H8U3)
inactive: [1] -0.106 | [10] 0.067 | [2] -0.067 | Nexturastat A 0.113 | vemurafenib -0.014 | [3] -0.004 | [4] -0.053 | givinostat 0.001 | barasertib 0.002 | [5] 0.158 | volasertib 0.149 | [6] 0.014 | epoxomicin 0.16 | [7] -0.007 | [8] -0.316 | [11] -0.023 | rosiglitazone 0.036 | [12] -0.005 | [9] 0.089

Quoted from the results shown (2 entries):
ZNF148 (UniProt Q9UQR1)
inactive: [1] 0.022 | [10] -0.276 | [2] -0.092 | [13] -0.078 | Nexturastat A -0.082 | [3] 0.047 | [4] -0.005 | givinostat -0.02 | barasertib -0.191 | volasertib 0.001 | [6] 0.174 | epoxomicin 0.036 | [7] -0.214 | [8] 0.088 | rosiglitazone 0.133 | [12] 0.043 | [9] 0.066

XK (UniProt P51811)
inactive: [1] -0.114 | [2] -0.056 | [13] -0.018 | vemurafenib -0.207 | [3] -0.116 | [4] -0.1 | givinostat 0.011 | barasertib -0.046 | [5] 0.062 | volasertib 0.014 | [6] -0.133 | [7] -0.092 | [8] -0.138 | [11] -0.036 | rosiglitazone -0.05 | [12] -0.031 | [9] 0.028

Further results follow.

ZFPM1 (UniProt Q8IX07)
inactive: [1] 0.079 | [10] 0.032 | [2] -0.046 | Nexturastat A -0.129 | vemurafenib 0.105 | [3] -0.02 | givinostat 0.123 | barasertib -0.248 | [5] -0.008 | volasertib 0.002 | [6] -0.003 | epoxomicin 0.009 | [7] -0.261 | [11] 0.238 | rosiglitazone 0.172 | [12] -0.14

ZCCHC9 (UniProt Q8N567)
inactive: [1] -0.227 | [10] 0.062 | [2] -0.109 | [13] -0.133 | Nexturastat A 0.311 | vemurafenib -0.11 | [3] -0.177 | [4] 0.057 | givinostat 0.038 | barasertib -0.094 | [5] 0.246 | volasertib 0.226 | [6] 0.013 | epoxomicin -0.303 | [8] 0.201 | [11] -0.125 | [9] 0.181

ZC3H7B (UniProt Q9UGR2)
inactive: [1] 0.038 | [10] 0.057 | [13] 0.234 | [4] -0.048 | [5] 0.151 | [8] -0.005 | [12] 0.484 | [9] 0.128

ZNF131 (UniProt P52739)
inactive: [1] 0.173 | [10] -0.16 | [13] -0.057 | Nexturastat A -0.045 | barasertib 0.061 | epoxomicin 0.066 | rosiglitazone -0.096

ZFR (UniProt Q96KR1)
inactive: [1] 0.07 | [10] -0.058 | [13] 0.091 | Nexturastat A 0.195 | vemurafenib -0.071 | [4] 0.009 | givinostat 0.058 | barasertib -0.118 | [5] 0.116 | [6] 0.114 | epoxomicin -0.167 | [7] -0.144 | [8] 0.051 | [11] -0.046 | rosiglitazone -0.142 | [12] 0.193 | [9] 0.122

ZCRB1 (UniProt Q8TBF4)
inactive: [1] -0.221 | [2] -0.147 | [3] -0.074 | givinostat -0.049 | [5] 0.021 | volasertib 0.092 | [7] -0.025 | [8] 0.066 | [9] 0.307
